From the supplement of paper PMC7858590
± gives the standard deviation of the averaged measurements. Whole data set: some 3,800 compounds, median “cell shape (eccentricity) Z-score vs DMSO control” near 1.1, cut for the lowest 2% near -4.7. The list shows a part of the results. Starred links: 1 amine or outer side, 2 acyl side, 3 side chain; linkers in the order of their positions; H or OH if unused. Positions of bridges follow the written chain, without caps; N, C: chain ends. Non-standard residues stand in square brackets, D forms with d. Residues, ends and D or L forms follow the SMILES beside them. Chains are numbered I, II in the order given. Actinocin(1to9) = Cc1c2oc3c(C)ccc(C(=O)[*:2])c3nc-2c(C(=O)[*:1])c(N)c1=O; NMeV = CN[CH](C(=O)O)C(C)C; Sar = CNCC(=O)O

These compounds were tested on human monocyte-derived macrophages (M0) (assay: cell shape (eccentricity) Z-score vs DMSO control; higher = more elongated, M2-like morphology). Details: 20 µM; 24 h; macrophage state: M0 (M-CSF).

Row | SMILES | cell shape (Z-score)
1 | COC(=O)[C@H]1CC[C@H](OC(C)=O)[C@]2(C)CC[C@@H](C(C)C)[C@@H](OC(=O)/C=C/c3ccccc3)C12 (stereo partly drawn) | 2.65
2 | Cn1cc(C2=C(c3ccc(Cl)cc3Cl)C(=O)NC2=O)c2ccccc21 | -0.822
3 | CC(Cc1ccccc1)(NC(=O)CN)c1ccccc1 (stereo not drawn) | 2.31
4 | Clc1ccc(C(Cn2ccnc2)OCc2ccsc2Cl)c(Cl)c1 (stereo not drawn) | 8.95
5 | C=C(NC(=O)C(=C)NC(=O)c1csc(C2=N[C@H]3c4csc(n4)[C@H]4NC(=O)c5csc(n5)[C@H]([C@@](C)(O)[C@@H](C)O)NC(=O)[C@H]5CSC(=N5)C(=CC)NC(=O)[C@H]([C@@H](C)O)NC(=O)c5csc(n5)[C@]3(CC2)NC(=O)[C@H](C)NC(=O)C(=C)NC(=O)[C@H](C)NC(=O)[C@H](C(C)CC)N[C@@H]2C=Cc3c([C@H](C)O)cc(nc3[C@H]2O)C(=O)O[C@@H]4C)n1)C(N)=O (stereo partly drawn) | -6.13
6 | C/C=C1/[C@H](O[C@@H]2O[C@H](CO)[C@@H](O)[C@H](O)[C@H]2O)OC=C(C(=O)OC)[C@H]1CC(=O)OCCc1ccc(O)cc1 | -0.322
7 | COC(=O)C(C(CO)Cc1ccc(O)c(OC)c1)C(O)c1ccc(O)c(OC)c1 (stereo not drawn) | 2.77
8 | CSCC1OC(n2cnc3c(=O)[nH]cnc32)C(O)C1O (stereo not drawn) | 1.09 ± 1.1
9 | O=c1oc2ccccc2c(O)c1Cc1c(O)c2ccccc2oc1=O | 0.779
10 | CC#CCOC(=O)c1c(C)nc2sc3c(c2c1N)CCC(O)C3 (stereo not drawn) | -0.105
11 | Nc1ccccc1NC(=O)c1ccc(CNC(=O)OCc2cccnc2)cc1 | -10.6 ± 0.74
12 | COc1cccc(OC)c1OCCNCC1COc2ccccc2O1 (stereo not drawn) | 2.21
13 | c1ccc2sc(SN3CCOCC3)nc2c1 | 0.316
14 | O=C(O)c1ccc(NCc2nc3cc4ccccc4cc3[nH]2)cc1 | 1.43
15 | CC[C@H](C)C(=O)O[C@H]1CCC=C2C=C[C@H](C)[C@H](CC[C@@H]3C[C@@H](O)CC(=O)O3)[C@H]21 | 0.701
16 | NC(=O)Cc1cccc(C(=O)c2ccccc2)c1N | 2
17 | C[C@H]1COC2=C1C(=O)C(=O)c1c2ccc2c1CCCC2(C)C | 3.51
18 | COc1cc(/C=C(\C#N)C(N)=O)cc(CSc2nc3ccccc3s2)c1O | 3.81
19 | Cc1ccc2ccc3ccc(C)nc3c2n1 | 3.48
20 | COc1ccccc1N1CCN(CC2CN3C(=O)N(C)c4ccccc4C3=N2)CC1 (stereo not drawn) | 0.841
21 | COc1cc(/C=C/C(=O)N2CCC=CC2=O)cc(OC)c1OC | 4.86
22 | COc1[nH]c2ccc(F)cc2c1C(=O)OCC1CCN(CCNS(C)(=O)=O)CC1 | 1.97
23 | Cn1cnc2c(F)c(Nc3ccc(Br)cc3Cl)c(C(=O)NOCCO)cc21 | 0.153
24 | CCCCOC(=O)c1ccc(N)cc1 | 6.92
25 | NCCCCCCNS(=O)(=O)c1ccc2c(Cl)cccc2c1 | -0.418
26 | Cc1cccc(C)c1OCC(=O)N[C@@H](Cc1ccccc1)[C@@H](O)C[C@H](Cc1ccccc1)NC(=O)[C@H](C(C)C)N1CCCNC1=O | 0.149
27 | CC(C)COCC(CN(Cc1ccccc1)c1ccccc1)N1CCCC1 (stereo not drawn) | 0.498

Row | SMILES | cell shape (Z-score)
28 | CC(C)c1ccc(C(=O)c2cccs2)c(SCCCCCCCCN(C)C)n1 | 0.0629
29 | O=c1c(-c2ccc(O)cc2)coc2c(C3O[C@H](CO)[C@@H](O)[C@H](O)[C@H]3O)c(O)ccc12 (stereo partly drawn) | 1.95
30 | C[C@@H]1CC[C@]2(C(=O)O[C@@H]3O[C@H](CO)[C@@H](O)[C@H](O)[C@H]3O)CC[C@]3(C(=O)O)C(=CCC4[C@@]5(C)CC[C@H](OC6OC[C@@H](O)[C@H](O)[C@H]6O)C(C)(C)C5CC[C@]43C)C2[C@H]1C (stereo partly drawn) | 0.774
31 | CC(=O)O[C@H]1CC[C@@]2(C)C(C[C@@H](OC(C)=O)[C@]3(C)C2CC[C@@]2(C)[C@H](c4ccoc4)OC(=O)[C@H]4O[C@]423)C1(C)C (stereo partly drawn) | -2.07
32 | NS(=O)(=O)c1cc2c(cc1Cl)N=CNS2(=O)=O | 2.11
33 | CC1CCC(O)C2C=CC(C)(O)C(C)(C(=O)CCO)C12 (stereo not drawn) | 0.182
34 | C=C1C(=O)O[C@H]2[C@H]1[C@@H](OC(=O)C(C)CO)C[C@@]1(C)[C@H](O)CCC(=O)[C@H]21 (stereo partly drawn) | 1.16
35 | C=CC1CN(C=O)CCC1CCC(=O)c1ccnc2ccccc12 (stereo not drawn) | 0.457
36 | CCn1c(=O)[nH]c2cc(Cl)c(Cl)cc21 | 4.06
37 | C=C(Oc1cccc(C(=O)O)c1)C(=O)O | -2.01 ± 5.5
38 | Cc1cc(C(C)Nc2ccccc2)c2nc(N3CCOCC3)cc(=O)n2c1 (stereo not drawn) | 3.96
39 | COc1cc(C2Oc3c(O)ccc([C@@H]4Oc5cc(O)cc(O)c5C(=O)[C@H]4O)c3C2CO)ccc1O (stereo partly drawn) | 0.851
40 | CC(=O)O[C@H]1C[C@@H](O)C(C)(C)C2C[C@@H](OC(C)=O)[C@]3(C)C(CC[C@@]4(C)[C@H](c5ccoc5)OC(=O)C5OC543)[C@]21C (stereo partly drawn) | -2.78
41 | COC(=O)C1=CO[C@@H](O[C@@H]2O[C@H](CO)[C@@H](O)[C@H](O)[C@H]2O)[C@H]2[C@@H]1[C@H](OC(C)=O)C[C@]2(C)O | 2.06 ± 0.066
42 | NCC(O)(CS(=O)(=O)O)c1ccc(Cl)cc1 (stereo not drawn) | 1.44
43 | COc1ccc2oc(-c3ccccc3)c(OC)c(=O)c2c1 | 4.37
44 | COc1ccc2[nH]c(-c3ccccc3)c(CCNC(C)=O)c2c1 | 0.107
45 | Nc1nc(N)nc(-c2cc(Cl)ccc2Cl)n1 | -0.761
46 | C#C[C@]1(O)CCC2C3CCC4=Cc5oncc5C[C@]4(C)C3CC[C@@]21C (stereo partly drawn) | 3.49
47 | C[C@H]1CC2C3CCC4=CC(=O)C=C[C@]4(C)[C@@]3(F)[C@@H](O)C[C@]2(C)[C@@]1(O)C(=O)CO (stereo partly drawn) | 0.526
48 | COc1ccc([C@H]2OC[C@H]3[C@@H]2CO[C@@H]3c2ccc(O[C@@H]3O[C@H](CO)C(O)[C@H](O)[C@H]3O)c(OC)c2)cc1OC (stereo partly drawn) | 2.29
49 | O=C1C[C@@H](c2ccc(O)cc2)Oc2cc(O)c([C@@H]3O[C@H](CO)[C@@H](O)[C@H](O)[C@H]3O)c(O)c21 | 1.77
50 | Cc1c(C(N)=O)cc([N+](=O)[O-])cc1[N+](=O)[O-] | 8.1
51 | COC1=CC(=O)OC1C(O)C(O)C(OC(C)=O)c1ccccc1 (stereo not drawn) | -0.0114
52 | CC[C@H](C)/C=C(C)/C=C/C(=O)Cc1cc(O)c(C)c(O)c1C=O | -1.16
53 | Cc1c2oc3c(C)ccc(C(=O)OC(C)C4NC(=O)C(C(C)C)N(C)C(=O)CN(C)C(=O)C5CCCN5C(=O)C(C(C)C)NC4=O)c3nc-2c(C(=O)OC(C)C2NC(=O)C(C(C)C)N(C)C(=O)CN(C)C(=O)C3CCCN3C(=O)C(C(C)C)NC2=O)c(N)c1=O (stereo not drawn) (I: cyclo([Sar][NMeV]TVP) / II: cyclo([Sar][NMeV]TVP); linker I:3-II:3 via Actinocin(1to9); configuration not given here) | 2.12

12 structures from above, arranged by heavy-atom count, low to high:
Row | SMILES | cell shape (Z-score)
50 | Cc1c(C(N)=O)cc([N+](=O)[O-])cc1[N+](=O)[O-] | 8.1
8 | CSCC1OC(n2cnc3c(=O)[nH]cnc32)C(O)C1O (stereo not drawn) | 1.09 ± 1.1
43 | COc1ccc2oc(-c3ccccc3)c(OC)c(=O)c2c1 | 4.37
17 | C[C@H]1COC2=C1C(=O)C(=O)c1c2ccc2c1CCCC2(C)C | 3.51
44 | COc1ccc2[nH]c(-c3ccccc3)c(CCNC(C)=O)c2c1 | 0.107
18 | COc1cc(/C=C(\C#N)C(N)=O)cc(CSc2nc3ccccc3s2)c1O | 3.81
47 | C[C@H]1CC2C3CCC4=CC(=O)C=C[C@]4(C)[C@@]3(F)[C@@H](O)C[C@]2(C)[C@@]1(O)C(=O)CO (stereo partly drawn) | 0.526
7 | COC(=O)C(C(CO)Cc1ccc(O)c(OC)c1)C(O)c1ccc(O)c(OC)c1 (stereo not drawn) | 2.77
41 | COC(=O)C1=CO[C@@H](O[C@@H]2O[C@H](CO)[C@@H](O)[C@H](O)[C@H]2O)[C@H]2[C@@H]1[C@H](OC(C)=O)C[C@]2(C)O | 2.06 ± 0.066
1 | COC(=O)[C@H]1CC[C@H](OC(C)=O)[C@]2(C)CC[C@@H](C(C)C)[C@@H](OC(=O)/C=C/c3ccccc3)C12 (stereo partly drawn) | 2.65
53 | Cc1c2oc3c(C)ccc(C(=O)OC(C)C4NC(=O)C(C(C)C)N(C)C(=O)CN(C)C(=O)C5CCCN5C(=O)C(C(C)C)NC4=O)c3nc-2c(C(=O)OC(C)C2NC(=O)C(C(C)C)N(C)C(=O)CN(C)C(=O)C3CCCN3C(=O)C(C(C)C)NC2=O)c(N)c1=O (stereo not drawn) (I: cyclo([Sar][NMeV]TVP) / II: cyclo([Sar][NMeV]TVP); linker I:3-II:3 via Actinocin(1to9); configuration not given here) | 2.12
5 | C=C(NC(=O)C(=C)NC(=O)c1csc(C2=N[C@H]3c4csc(n4)[C@H]4NC(=O)c5csc(n5)[C@H]([C@@](C)(O)[C@@H](C)O)NC(=O)[C@H]5CSC(=N5)C(=CC)NC(=O)[C@H]([C@@H](C)O)NC(=O)c5csc(n5)[C@]3(CC2)NC(=O)[C@H](C)NC(=O)C(=C)NC(=O)[C@H](C)NC(=O)[C@H](C(C)CC)N[C@@H]2C=Cc3c([C@H](C)O)cc(nc3[C@H]2O)C(=O)O[C@@H]4C)n1)C(N)=O (stereo partly drawn) | -6.13
